One substance from article PMC7476715 can be followed below.

By UniProt entry, the sequences of proteins in these tests, tags left out.
UniProt P11881: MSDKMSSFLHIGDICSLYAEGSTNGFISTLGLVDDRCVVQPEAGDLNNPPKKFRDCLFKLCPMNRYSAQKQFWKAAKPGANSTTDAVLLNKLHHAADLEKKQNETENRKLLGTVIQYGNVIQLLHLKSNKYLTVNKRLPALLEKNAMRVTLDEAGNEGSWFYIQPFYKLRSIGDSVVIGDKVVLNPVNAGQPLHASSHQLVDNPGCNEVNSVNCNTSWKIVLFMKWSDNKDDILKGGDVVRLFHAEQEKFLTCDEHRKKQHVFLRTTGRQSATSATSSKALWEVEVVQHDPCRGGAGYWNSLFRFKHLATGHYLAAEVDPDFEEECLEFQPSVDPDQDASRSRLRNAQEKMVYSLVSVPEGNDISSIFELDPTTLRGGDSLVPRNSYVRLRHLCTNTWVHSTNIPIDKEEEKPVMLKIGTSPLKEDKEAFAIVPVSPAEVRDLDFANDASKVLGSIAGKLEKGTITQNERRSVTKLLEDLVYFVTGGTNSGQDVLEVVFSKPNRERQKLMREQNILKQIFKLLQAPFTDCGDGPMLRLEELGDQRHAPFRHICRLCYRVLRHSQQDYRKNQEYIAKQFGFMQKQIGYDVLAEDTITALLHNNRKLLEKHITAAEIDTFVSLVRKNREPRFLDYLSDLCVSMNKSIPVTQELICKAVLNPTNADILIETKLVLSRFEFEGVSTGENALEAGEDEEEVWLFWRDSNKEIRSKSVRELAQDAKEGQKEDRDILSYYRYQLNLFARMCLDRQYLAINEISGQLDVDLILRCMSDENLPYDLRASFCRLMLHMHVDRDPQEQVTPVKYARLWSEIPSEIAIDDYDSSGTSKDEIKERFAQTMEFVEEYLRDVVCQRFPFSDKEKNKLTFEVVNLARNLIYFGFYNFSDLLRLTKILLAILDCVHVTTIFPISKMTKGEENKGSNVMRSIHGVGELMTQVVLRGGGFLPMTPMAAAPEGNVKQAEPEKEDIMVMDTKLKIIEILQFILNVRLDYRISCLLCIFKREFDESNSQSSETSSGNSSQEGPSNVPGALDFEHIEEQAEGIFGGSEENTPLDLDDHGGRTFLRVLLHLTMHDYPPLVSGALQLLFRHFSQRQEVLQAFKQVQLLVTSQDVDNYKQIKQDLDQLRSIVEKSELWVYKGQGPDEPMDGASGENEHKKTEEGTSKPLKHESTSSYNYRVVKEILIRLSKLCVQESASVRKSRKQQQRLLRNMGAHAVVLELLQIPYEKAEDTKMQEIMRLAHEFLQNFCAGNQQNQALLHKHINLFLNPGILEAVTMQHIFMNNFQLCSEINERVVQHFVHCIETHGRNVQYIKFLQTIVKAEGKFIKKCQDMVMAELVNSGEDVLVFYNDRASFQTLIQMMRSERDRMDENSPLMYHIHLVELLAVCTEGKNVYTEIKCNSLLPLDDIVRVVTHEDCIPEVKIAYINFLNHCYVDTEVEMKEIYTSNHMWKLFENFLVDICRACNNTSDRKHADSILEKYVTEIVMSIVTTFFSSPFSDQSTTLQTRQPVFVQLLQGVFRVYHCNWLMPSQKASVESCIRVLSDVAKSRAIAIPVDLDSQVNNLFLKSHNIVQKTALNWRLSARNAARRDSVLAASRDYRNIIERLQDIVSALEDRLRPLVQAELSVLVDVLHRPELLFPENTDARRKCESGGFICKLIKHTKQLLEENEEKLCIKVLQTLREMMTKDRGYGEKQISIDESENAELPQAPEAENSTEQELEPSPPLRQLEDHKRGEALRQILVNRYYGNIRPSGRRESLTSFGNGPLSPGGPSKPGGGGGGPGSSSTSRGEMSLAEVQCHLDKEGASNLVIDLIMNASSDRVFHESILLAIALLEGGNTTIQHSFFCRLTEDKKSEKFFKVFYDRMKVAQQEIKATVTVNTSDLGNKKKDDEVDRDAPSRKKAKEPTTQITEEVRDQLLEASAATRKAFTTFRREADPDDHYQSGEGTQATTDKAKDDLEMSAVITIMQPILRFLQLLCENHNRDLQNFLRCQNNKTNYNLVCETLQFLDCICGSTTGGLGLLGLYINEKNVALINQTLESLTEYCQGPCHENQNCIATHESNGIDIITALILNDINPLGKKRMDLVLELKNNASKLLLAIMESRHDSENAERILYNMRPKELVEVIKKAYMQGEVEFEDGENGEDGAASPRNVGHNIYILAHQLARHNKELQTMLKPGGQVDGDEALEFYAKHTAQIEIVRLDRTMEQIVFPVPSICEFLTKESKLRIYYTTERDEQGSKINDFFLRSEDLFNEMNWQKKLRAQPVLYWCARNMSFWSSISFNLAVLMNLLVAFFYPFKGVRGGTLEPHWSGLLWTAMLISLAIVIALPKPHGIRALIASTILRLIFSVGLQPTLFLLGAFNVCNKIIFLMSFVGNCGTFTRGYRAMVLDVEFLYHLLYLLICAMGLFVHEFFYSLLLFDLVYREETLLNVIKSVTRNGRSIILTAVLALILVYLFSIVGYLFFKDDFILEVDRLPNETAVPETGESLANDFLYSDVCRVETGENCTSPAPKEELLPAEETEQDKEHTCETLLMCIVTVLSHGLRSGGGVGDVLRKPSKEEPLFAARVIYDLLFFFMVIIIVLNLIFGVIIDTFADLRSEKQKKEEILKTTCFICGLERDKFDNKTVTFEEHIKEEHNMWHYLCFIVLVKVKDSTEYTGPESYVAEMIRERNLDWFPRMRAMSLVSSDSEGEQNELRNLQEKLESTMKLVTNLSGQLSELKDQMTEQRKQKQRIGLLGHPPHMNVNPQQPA

In this experiment the target is T1, Contactin-associated protein-like 2 (Caspr2), endogenous in mouse cerebellar synaptosomes (mouse (endogenous in cerebellar synaptosomes)) (UniProt Q9CPW0).
T1 sequence: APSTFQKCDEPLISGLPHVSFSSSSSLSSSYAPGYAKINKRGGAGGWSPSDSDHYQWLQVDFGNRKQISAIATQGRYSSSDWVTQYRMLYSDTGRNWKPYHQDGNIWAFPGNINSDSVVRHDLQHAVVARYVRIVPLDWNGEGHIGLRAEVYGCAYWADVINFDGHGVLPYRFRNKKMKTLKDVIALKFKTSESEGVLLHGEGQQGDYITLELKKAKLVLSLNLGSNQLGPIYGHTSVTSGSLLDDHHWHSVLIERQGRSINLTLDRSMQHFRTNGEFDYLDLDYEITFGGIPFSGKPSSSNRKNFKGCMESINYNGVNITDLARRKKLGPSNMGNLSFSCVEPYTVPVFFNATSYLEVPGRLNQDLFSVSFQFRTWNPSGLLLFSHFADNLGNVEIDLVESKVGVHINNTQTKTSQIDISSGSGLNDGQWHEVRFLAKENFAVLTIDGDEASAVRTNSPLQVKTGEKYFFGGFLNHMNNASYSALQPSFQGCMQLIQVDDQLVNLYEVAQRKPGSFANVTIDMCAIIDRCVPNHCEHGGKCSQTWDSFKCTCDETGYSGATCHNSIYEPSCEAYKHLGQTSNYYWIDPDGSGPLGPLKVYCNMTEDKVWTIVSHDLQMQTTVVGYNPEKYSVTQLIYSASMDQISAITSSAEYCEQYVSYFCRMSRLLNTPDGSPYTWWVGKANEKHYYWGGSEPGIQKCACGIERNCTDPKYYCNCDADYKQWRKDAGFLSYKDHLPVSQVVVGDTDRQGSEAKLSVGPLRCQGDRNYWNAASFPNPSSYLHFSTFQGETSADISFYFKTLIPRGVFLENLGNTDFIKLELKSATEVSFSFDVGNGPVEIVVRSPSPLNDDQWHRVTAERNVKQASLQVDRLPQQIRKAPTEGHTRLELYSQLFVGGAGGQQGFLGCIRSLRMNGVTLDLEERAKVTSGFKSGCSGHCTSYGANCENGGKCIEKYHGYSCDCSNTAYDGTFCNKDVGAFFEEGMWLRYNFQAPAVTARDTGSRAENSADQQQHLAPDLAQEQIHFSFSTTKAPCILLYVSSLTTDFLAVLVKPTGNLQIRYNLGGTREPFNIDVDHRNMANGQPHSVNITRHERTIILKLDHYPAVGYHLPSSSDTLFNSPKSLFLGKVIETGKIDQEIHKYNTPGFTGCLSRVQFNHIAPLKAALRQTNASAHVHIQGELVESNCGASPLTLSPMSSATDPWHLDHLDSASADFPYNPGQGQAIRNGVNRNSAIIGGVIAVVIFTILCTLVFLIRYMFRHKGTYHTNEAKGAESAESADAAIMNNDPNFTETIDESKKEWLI
Briefly: co-IP; lysate of P14 WT mouse cerebellar synaptosomes, immunoprecipitation with anti-Caspr2 antibody or control IgG, immunoblotting for Caspr2 and IP3R1; 4 °C. Background: A western blot detects proteins with antibodies after separation by electrophoresis.

No constants are given. Whether binding was seen depends on the method and setting. Binding seen in cells or lysates may run through a third protein. Some results given as binding are weak or reduced against the parent protein; the word gives no strength.

As to “type 1 inositol 1,4,5-trisphosphate receptor (IP3R1), endogenous in mouse cerebellar synaptosomes (from UniProt P11881 1-2749)”, the binding result was “binds”.
